The values that follow come from PMC9457997, “2-(Nitroaryl)-5-Substituted-1,3,4-Thiadiazole Derivatives with Antiprotozoal Activities: In Vitro and In Vivo Study” (Molecules, 2022).

Structures are written as SMILES.

Data set [1] relates to T. cruzi, strain Tulahuen C4 amastigotes. Nature of the data set: In vitro activity against T. cruzi amastigotes. The note with it: selectivity index. The data set is classed as cell-based. How it is done:
Although all of the compounds had been tested against Leishmania major promastigotes in our previous works, to deeper evaluate the antitrypanosomatid potential of the selected nitroimidazole derivatives, their activity was measured against L. donovani axenic amastigotes and T. cruzi amastigotes (Table 2). Miltefosine and benznidazole were used as reference drugs. Compounds 18a and 18g were also tested against L. donovani intracellular amastigotes in peritoneal murine macrophages in a further assay. […]. In vitro activity against the protozoan parasites T. b. rhodesiense, T.cruzi, L. donovani and cytotoxicity assessment against L6 cells were determined as reported previously. The following strains, parasite forms, and positive controls were used: T. b. rhodesiense STIB 900 bloodstream forms, melarsoprol (received from WHO, Arsobal Sanofi); T.cruzi Tulahuen C2C4 intracellular amastigotes, benznidazole (received from DNDi synthesized by Epichem Pty Ltd., Murdoch, Australia); L. donovani MHOM-ET-67/L82 axenically grown amastigotes and intracellular amastigotes, miltefosine (Sigma M5571). L6 rat skeletal myoblasts (ATCC CRL-1458), podophyllotoxin (Sigma P4405).

Data set [2] relates to L. donovani, strain MHOM-ET-67/L82 axenically grown amastigotes. In words: In vitro activity against L. donovani axenic amastigotes. The class given is cell-based. To be noted: selectivity index. As to the method: Miltefosine and benznidazole were used as reference drugs. […] In vitro activity against the protozoan parasites T. b. rhodesiense, T.cruzi, L. donovani and cytotoxicity assessment against L6 cells were determined as reported previously. The following strains, parasite forms, and positive controls were used: T. b. rhodesiense STIB 900 bloodstream forms, melarsoprol (received from WHO, Arsobal Sanofi); T.cruzi Tulahuen C2C4 intracellular amastigotes, benznidazole (received from DNDi synthesized by Epichem Pty Ltd., Murdoch, Australia); L. donovani MHOM-ET-67/L82 axenically grown amastigotes and intracellular amastigotes, miltefosine (Sigma M5571).

Turning to `CC(=O)N1CCN(c2nnc(-c3ncc([N+](=O)[O-])n3C)s2)CC1` [Compound 18f], the “SI (IC50 in L6 cells/IC50 in T. cruzi)” value in data set [1] is listed as above 571.
Turning to `Cn1c([N+](=O)[O-])cnc1-c1nnc(N2CCOCC2)s1` [Compound 18b], in data set [2], the “SI (IC50 in L6 cells/IC50 in L. donovani axenic amastigotes)” value stood at 597. In addition, in data set [1], the “SI (IC50 in L6 cells/IC50 in T. cruzi)” value was found to be 903.
In the case of `Cn1c([N+](=O)[O-])cnc1-c1nnc(N2CCCCC2)s1` [Compound 18a], the “SI (IC50 in L6 cells/IC50 in T. cruzi)” value in data set [1] is above 342.
Consider `Cn1c([N+](=O)[O-])cnc1-c1nnc(N2CCNCC2)s1` [Compound 18c], for which, in data set [2], the “SI (IC50 in L6 cells/IC50 in L. donovani axenic amastigotes)” value was 43. Further, the “SI (IC50 in L6 cells/IC50 in T. cruzi)” value in data set [1] is given as 1123.
